This is one part of the list.

Sequences of proteins named here, by UniProt entry; tags and fusion partners are left off. A change or cut given only in a name is not applied to a line headed by its entry.
UniProt Q9Y5P6: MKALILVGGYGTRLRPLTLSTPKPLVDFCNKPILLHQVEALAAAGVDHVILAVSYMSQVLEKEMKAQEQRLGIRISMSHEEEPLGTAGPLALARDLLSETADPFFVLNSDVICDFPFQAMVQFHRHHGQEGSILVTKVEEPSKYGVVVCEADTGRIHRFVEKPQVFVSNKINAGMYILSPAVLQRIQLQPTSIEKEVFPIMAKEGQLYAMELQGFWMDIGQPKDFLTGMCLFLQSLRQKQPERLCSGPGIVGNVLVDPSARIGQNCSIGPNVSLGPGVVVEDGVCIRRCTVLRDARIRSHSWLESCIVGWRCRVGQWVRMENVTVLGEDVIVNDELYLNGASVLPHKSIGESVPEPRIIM
UniProt P28799: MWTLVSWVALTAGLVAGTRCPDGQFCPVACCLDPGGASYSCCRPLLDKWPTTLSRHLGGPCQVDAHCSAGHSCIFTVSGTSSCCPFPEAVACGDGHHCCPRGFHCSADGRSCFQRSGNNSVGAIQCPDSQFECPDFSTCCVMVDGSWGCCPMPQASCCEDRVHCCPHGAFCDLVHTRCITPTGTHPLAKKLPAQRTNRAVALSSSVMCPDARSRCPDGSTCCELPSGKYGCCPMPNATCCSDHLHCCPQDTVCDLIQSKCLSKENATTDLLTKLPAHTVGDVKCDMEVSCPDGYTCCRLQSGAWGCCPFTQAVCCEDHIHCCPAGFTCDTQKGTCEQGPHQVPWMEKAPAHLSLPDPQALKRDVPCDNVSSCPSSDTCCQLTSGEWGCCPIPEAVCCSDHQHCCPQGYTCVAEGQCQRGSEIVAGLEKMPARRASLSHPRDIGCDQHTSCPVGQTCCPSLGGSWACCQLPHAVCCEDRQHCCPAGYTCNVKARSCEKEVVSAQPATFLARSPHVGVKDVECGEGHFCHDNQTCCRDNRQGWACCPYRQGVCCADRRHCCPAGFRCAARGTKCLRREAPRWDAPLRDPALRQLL
UniProt P62993, whole entry, looked up: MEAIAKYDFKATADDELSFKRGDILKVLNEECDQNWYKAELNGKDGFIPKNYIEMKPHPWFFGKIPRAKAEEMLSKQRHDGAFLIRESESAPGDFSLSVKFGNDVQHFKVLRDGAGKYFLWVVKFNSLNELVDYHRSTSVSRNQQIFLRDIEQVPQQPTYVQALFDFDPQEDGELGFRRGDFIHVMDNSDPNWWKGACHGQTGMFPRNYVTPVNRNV
UniProt Q14344, whole entry, looked up: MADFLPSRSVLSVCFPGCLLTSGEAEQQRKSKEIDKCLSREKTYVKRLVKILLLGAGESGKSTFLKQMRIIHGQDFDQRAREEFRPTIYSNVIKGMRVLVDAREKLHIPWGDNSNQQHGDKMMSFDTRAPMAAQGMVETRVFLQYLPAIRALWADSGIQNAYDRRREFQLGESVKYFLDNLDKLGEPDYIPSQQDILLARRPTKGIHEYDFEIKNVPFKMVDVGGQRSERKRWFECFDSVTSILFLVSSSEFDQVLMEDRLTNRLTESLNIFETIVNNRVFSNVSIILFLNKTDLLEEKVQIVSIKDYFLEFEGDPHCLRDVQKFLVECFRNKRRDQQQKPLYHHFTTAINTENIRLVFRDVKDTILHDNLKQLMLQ
UniProt P43304: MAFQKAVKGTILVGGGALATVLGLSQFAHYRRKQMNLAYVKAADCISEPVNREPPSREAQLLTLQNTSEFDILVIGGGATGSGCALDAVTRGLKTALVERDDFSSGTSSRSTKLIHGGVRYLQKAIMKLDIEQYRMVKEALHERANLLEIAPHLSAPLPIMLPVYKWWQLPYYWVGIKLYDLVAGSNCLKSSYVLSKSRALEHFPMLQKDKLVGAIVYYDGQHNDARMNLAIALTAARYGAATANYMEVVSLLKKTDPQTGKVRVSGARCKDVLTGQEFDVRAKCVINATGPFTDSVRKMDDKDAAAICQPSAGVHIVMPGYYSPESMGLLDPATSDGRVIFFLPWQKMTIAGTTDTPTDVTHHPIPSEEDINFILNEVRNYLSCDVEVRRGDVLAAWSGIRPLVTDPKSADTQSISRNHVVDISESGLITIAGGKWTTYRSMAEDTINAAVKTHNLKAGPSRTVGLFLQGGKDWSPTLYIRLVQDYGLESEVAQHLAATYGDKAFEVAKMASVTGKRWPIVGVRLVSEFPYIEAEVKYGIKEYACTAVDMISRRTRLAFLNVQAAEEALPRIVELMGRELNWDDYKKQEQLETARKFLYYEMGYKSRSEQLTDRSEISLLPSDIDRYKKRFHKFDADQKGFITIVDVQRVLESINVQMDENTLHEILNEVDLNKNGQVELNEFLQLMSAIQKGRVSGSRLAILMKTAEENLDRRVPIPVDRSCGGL
UniProt Q7Z2K8: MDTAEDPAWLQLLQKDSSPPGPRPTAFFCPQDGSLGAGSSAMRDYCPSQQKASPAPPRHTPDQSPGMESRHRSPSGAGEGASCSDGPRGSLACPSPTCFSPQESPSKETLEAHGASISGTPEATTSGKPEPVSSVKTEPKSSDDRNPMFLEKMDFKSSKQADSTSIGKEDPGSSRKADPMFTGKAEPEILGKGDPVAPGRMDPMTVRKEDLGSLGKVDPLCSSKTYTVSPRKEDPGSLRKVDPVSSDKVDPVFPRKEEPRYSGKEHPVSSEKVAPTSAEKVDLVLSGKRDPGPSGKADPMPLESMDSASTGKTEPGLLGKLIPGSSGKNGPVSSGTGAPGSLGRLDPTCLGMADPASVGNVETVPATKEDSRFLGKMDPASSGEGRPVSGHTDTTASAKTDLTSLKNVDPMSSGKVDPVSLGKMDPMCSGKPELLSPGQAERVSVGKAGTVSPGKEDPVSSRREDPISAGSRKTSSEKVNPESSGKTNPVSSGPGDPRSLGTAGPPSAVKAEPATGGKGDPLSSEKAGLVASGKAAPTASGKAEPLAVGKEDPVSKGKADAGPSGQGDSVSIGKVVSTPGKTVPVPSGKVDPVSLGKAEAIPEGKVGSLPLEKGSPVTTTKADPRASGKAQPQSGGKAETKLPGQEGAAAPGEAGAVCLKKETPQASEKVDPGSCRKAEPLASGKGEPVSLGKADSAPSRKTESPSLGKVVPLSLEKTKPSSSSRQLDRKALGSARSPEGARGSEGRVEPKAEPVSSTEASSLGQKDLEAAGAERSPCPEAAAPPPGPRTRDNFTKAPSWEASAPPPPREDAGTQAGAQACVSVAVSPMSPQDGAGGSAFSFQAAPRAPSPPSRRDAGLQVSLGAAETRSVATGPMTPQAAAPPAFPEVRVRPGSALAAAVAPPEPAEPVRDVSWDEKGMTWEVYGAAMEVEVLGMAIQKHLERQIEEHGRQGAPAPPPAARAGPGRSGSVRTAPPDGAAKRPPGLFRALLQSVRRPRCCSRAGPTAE
UniProt Q8TDQ7: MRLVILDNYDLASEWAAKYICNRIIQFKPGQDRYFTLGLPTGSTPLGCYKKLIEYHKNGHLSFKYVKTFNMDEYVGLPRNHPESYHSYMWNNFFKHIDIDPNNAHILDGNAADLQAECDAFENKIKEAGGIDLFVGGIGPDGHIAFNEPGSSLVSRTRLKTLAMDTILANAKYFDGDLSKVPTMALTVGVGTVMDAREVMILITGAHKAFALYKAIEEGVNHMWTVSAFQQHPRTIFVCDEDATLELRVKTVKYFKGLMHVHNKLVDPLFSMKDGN
UniProt O43292: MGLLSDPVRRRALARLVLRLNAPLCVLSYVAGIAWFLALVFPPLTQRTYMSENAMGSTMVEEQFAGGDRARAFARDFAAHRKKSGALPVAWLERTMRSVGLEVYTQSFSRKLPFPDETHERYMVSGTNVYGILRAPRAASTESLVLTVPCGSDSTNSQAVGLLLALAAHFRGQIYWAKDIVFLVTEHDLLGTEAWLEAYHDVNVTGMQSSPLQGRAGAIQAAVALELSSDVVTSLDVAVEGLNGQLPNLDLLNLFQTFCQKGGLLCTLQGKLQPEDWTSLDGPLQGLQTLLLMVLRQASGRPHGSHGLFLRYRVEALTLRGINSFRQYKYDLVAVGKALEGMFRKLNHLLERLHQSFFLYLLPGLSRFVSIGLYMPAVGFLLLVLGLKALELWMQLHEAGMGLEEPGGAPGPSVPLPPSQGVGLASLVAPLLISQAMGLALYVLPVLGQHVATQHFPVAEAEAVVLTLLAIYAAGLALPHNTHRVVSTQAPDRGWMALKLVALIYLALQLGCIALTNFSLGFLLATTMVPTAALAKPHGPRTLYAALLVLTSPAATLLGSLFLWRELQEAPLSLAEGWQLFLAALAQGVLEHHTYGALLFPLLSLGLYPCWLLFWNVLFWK
UniProt Q5VW38: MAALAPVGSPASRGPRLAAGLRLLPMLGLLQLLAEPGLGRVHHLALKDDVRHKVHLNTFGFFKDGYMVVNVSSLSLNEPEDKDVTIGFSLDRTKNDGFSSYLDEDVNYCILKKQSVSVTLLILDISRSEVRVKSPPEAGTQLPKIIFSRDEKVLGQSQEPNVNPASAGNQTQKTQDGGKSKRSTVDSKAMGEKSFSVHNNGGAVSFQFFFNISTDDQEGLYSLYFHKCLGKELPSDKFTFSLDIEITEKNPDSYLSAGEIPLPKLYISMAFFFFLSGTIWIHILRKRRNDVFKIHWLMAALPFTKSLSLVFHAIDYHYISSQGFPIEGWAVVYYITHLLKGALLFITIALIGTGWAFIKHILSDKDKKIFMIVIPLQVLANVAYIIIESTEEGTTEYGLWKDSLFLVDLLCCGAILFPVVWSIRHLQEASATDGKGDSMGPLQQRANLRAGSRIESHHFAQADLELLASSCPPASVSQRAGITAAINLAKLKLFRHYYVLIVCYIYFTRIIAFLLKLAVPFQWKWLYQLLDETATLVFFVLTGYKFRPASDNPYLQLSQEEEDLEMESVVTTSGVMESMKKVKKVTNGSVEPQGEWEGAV
UniProt Q9Y3E0: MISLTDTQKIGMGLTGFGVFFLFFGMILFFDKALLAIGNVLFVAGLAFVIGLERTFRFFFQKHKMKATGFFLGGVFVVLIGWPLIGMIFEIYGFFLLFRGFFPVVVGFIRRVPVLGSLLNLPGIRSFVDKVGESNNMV
UniProt Q9BQ67, whole entry, looked up: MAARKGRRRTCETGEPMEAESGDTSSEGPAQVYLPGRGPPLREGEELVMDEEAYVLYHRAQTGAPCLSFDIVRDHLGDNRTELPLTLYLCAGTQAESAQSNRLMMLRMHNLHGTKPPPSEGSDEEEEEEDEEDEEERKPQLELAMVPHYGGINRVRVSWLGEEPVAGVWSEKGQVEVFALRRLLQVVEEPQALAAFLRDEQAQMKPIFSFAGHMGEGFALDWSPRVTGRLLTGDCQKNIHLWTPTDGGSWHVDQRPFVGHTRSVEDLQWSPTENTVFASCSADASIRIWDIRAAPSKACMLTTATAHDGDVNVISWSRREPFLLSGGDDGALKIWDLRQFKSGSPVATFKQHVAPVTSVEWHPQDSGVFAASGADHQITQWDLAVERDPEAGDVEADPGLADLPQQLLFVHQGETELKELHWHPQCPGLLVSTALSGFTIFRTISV
UniProt Q12849: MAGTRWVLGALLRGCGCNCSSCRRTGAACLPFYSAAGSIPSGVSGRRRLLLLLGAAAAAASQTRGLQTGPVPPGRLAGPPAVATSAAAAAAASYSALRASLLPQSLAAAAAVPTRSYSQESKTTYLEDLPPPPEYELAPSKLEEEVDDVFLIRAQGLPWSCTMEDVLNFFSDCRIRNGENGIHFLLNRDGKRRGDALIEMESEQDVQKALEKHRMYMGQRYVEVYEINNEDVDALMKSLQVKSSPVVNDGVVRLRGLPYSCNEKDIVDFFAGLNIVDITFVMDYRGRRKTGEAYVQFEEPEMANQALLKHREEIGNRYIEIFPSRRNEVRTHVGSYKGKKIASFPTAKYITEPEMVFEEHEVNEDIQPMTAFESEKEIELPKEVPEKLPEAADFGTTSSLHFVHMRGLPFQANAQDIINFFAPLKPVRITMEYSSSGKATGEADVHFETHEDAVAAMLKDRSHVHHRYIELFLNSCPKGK
UniProt Q9HC38: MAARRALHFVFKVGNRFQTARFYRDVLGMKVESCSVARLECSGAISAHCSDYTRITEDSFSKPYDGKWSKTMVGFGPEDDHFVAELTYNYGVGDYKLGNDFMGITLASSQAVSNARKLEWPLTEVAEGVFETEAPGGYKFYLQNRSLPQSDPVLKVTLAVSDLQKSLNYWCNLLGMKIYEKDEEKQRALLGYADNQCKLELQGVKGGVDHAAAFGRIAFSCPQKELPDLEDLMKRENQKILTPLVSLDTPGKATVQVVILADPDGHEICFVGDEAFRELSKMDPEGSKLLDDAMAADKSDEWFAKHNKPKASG
UniProt Q9BRX5: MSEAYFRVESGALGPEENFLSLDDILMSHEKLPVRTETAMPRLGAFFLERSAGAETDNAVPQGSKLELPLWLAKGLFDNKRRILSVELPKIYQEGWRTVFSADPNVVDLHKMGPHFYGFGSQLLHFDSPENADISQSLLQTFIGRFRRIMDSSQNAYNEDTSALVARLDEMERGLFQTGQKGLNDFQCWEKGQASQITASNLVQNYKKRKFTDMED
UniProt O60234, whole entry, looked up: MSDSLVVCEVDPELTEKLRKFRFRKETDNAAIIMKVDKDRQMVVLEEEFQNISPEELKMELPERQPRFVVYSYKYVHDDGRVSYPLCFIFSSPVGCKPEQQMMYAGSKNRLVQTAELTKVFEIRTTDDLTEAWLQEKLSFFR

Results on 39 targets are retold here after the supplement of paper PMC10849652.

Compound in one experiment: Cc1ccc(C(=O)N(CCCN)[C@@H](c2nc3cc(Cl)ccc3c(=O)n2Cc2ccccc2)C(C)C)cc1 [ispinesib]
As to the kind of experiment: log2 fold change, soluble protein after heating vs DMSO (PISA); higher = thermal stabilisation; K562 cells, 10 uM, 30 min; active = over 0.2 and 3.5 SD of the protein, either way, in both replicates (recomputed). In short, it runs like this: (§1)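 Quantification of soluble protein used TMTpro 16plex LC-MS/MS, with channel sums equalised. Samples were the supernatant after 21,000xg for 90 min of pooled aliquots from K562 cells (2×10^6 cells/mL) treated with 10 μM compound for 30 min, heated for 3 min over 48°C-58°C, and extracted in PBS with 0.5% NP-40 at 4°C. Values, from duplicates, describe thermal stability against control samples on a log2 fold-change scale.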
For the target GMPPB isoform 2 (UniProt Q9Y5P6), the log2 fold change is inactive: -0.016.

On to GK (UniProt P32189), for which the log2 fold change is inactive: 0.039.

With GRN (UniProt P28799), the log2 fold change was inactive: -0.058.

For the target GRB2 (UniProt P62993), the log2 fold change is inactive: 0.021.

Turning to GINS4 (UniProt Q9BRT9), the log2 fold change was inactive: -0.007.

GRAP2 (UniProt O75791): the log2 fold change was inactive: -0.066.

Turning to GPD1L (UniProt Q8N335), the log2 fold change was inactive: 0.041.

In the case of GNA13 (UniProt Q14344), the log2 fold change was inactive: 0.064.

As to GOSR1 (UniProt O95249), the log2 fold change is inactive: -0.074.

Consider GPATCH8 (UniProt Q9UKJ3), for which the log2 fold change is inactive: 0.011.

On to GPALPP1 (UniProt Q8IXQ4), for which the log2 fold change was inactive: 0.053.

GPD2 (UniProt P43304): the log2 fold change is inactive: 0.099.

With GPRIN1 (UniProt Q7Z2K8), the log2 fold change is inactive: 0.062.

For the target GPN3 isoform 2 (UniProt Q9UHW5), the log2 fold change is inactive: -0.012.

As to GNPDA2 (UniProt Q8TDQ7), the log2 fold change is inactive: -0.014.

GMPR2 isoform 2 (UniProt Q9P2T1): the log2 fold change was inactive: 0.018.

In the case of GNE isoform 2 (UniProt Q9Y223), the log2 fold change is inactive: -0.018.

As for GPAA1 (UniProt O43292), the log2 fold change is inactive: -0.012.

GPR107 (UniProt Q5VW38): the log2 fold change was inactive: 0.028.

As to GORASP2 isoform 3 (UniProt Q9H8Y8), the log2 fold change is inactive: 0.083.

Regarding GOLIM4 (UniProt O00461), the log2 fold change was inactive: -0.039.

GPN1 isoform 5 (UniProt Q9HCN4): the log2 fold change was inactive: 0.021.

For GOLT1B (UniProt Q9Y3E0), the log2 fold change was inactive: -0.016.

On to GRWD1 (UniProt Q9BQ67), for which the log2 fold change was inactive: -0.094.

With GRHPR (UniProt Q9UBQ7), the log2 fold change is inactive: 0.08.

GLG1 isoform 2 (UniProt Q92896): the log2 fold change is inactive: 0.012.

For GRSF1 (UniProt Q12849), the log2 fold change was inactive: -0.161.

Take GPHN isoform 2 (UniProt Q9NQX3): the log2 fold change is inactive: 0.035.

In the case of GLOD4 isoform 2 (UniProt Q9HC38), the log2 fold change was inactive: -0.05.

For the target GLB1L2 (UniProt Q8IW92), the log2 fold change is inactive: -0.043.

Regarding GIPC1 (UniProt O14908), the log2 fold change is inactive: 0.022.

On to GOLGA2 (UniProt Q08379), for which the log2 fold change was inactive: -0.057.

Consider GINS3 (UniProt Q9BRX5), for which the log2 fold change is inactive: 0.013.

As for GOLGA5 (UniProt Q8TBA6), the log2 fold change was inactive: 0.106.

Turning to GOT1 (UniProt P17174), the log2 fold change was inactive: 0.019.

Consider GM2A (UniProt P17900), for which the log2 fold change was inactive: 0.031.

Regarding GMFG (UniProt O60234), the log2 fold change is inactive: 0.049.

On to GNAQ (UniProt P50148), for which the log2 fold change was inactive: 0.048.

GPATCH11 (UniProt Q8N954): the log2 fold change is inactive: -0.043.

Compound in the next experiment: Cc1ccc(NC(=O)c2ccc(CN3CC[C@H](N(C)C)C3)c(C(F)(F)F)c2)cc1Nc1nccc(-c2cncnc2)n1 [bafetinib]
The experiment is described as above. In short, it runs like this:
as §1
On to GMPPB isoform 2 (UniProt Q9Y5P6), for which the log2 fold change was inactive: 0.048.

In the case of GK (UniProt P32189), the log2 fold change was inactive: -0.066.

For the target GRN (UniProt P28799), the log2 fold change is inactive: 0.253.

In the case of GRB2 (UniProt P62993), the log2 fold change was inactive: 0.139.

Consider GINS4 (UniProt Q9BRT9), for which the log2 fold change was inactive: -0.04.

Take GRAP2 (UniProt O75791): the log2 fold change is inactive: 0.195.

As to GPD1L (UniProt Q8N335), the log2 fold change is inactive: -0.044.

As to GNA13 (UniProt Q14344), the log2 fold change is inactive: 0.036.

On to GOSR1 (UniProt O95249), for which the log2 fold change is inactive: -0.073.

Take GPATCH8 (UniProt Q9UKJ3): the log2 fold change is inactive: -0.032.

GPALPP1 (UniProt Q8IXQ4): the log2 fold change was inactive: -0.056.

Take GPD2 (UniProt P43304): the log2 fold change was inactive: -0.038.

For the target GPRIN1 (UniProt Q7Z2K8), the log2 fold change was inactive: 0.059.

GPN3 isoform 2 (UniProt Q9UHW5): the log2 fold change is inactive: -0.041.

As to GNPDA2 (UniProt Q8TDQ7), the log2 fold change was inactive: 0.007.

On to GMPR2 isoform 2 (UniProt Q9P2T1), for which the log2 fold change is inactive: -0.025.

As for GNE isoform 2 (UniProt Q9Y223), the log2 fold change is inactive: 0.076.

With GPAA1 (UniProt O43292), the log2 fold change was inactive: -0.047.

GPR107 (UniProt Q5VW38): the log2 fold change was inactive: -0.075.

GORASP2 isoform 3 (UniProt Q9H8Y8): the log2 fold change was inactive: 0.094.

As to GOLIM4 (UniProt O00461), the log2 fold change was inactive: -0.032.

GPN1 isoform 5 (UniProt Q9HCN4): the log2 fold change was inactive: -0.027.

As for GOLT1B (UniProt Q9Y3E0), the log2 fold change is inactive: -0.04.

Take GRWD1 (UniProt Q9BQ67): the log2 fold change was inactive: 0.133.

Turning to GRHPR (UniProt Q9UBQ7), the log2 fold change was inactive: 0.

With GLG1 isoform 2 (UniProt Q92896), the log2 fold change is inactive: -0.038.

For GRSF1 (UniProt Q12849), the log2 fold change was inactive: 0.048.

For the target GPHN isoform 2 (UniProt Q9NQX3), the log2 fold change was inactive: -0.03.

As for GLOD4 isoform 2 (UniProt Q9HC38), the log2 fold change was inactive: -0.041.

For the target GLB1L2 (UniProt Q8IW92), the log2 fold change was inactive: 0.02.

For GIPC1 (UniProt O14908), the log2 fold change was inactive: -0.012.

Take GOLGA2 (UniProt Q08379): the log2 fold change was inactive: -0.009.

Regarding GINS3 (UniProt Q9BRX5), the log2 fold change is inactive: 0.

Regarding GOLGA5 (UniProt Q8TBA6), the log2 fold change was inactive: -0.074.

As for GOT1 (UniProt P17174), the log2 fold change was inactive: -0.02.

For GM2A (UniProt P17900), the log2 fold change is inactive: -0.069.

Regarding GMFG (UniProt O60234), the log2 fold change was inactive: 0.016.

In the case of GNAQ (UniProt P50148), the log2 fold change is inactive: 0.006.

On to GPATCH11 (UniProt Q8N954), for which the log2 fold change was inactive: -0.017.
